Some of these results come from one statement about several compounds together.
Assays:
Assay type in all cases: biochemical
[1] = target: Haemophilus influenzae PDF (Haemophilus influenzae, UniProt P44786); assay: PDF IC50 assay (FDH-coupled), H. influenzae PDF; conditions: read-out: IC50, inhibition of H. influenzae PDF activity
[2] = target: T1, Streptococcus pneumoniae PDF (Streptococcus pneumoniae serotype 4, UniProt Q9F2F0); assay: PDF IC50 assay (FDH-coupled), S. pneumoniae PDF; conditions: read-out: IC50, inhibition of S. pneumoniae PDF activity
T1 sequence (Q9F2F0 1-203): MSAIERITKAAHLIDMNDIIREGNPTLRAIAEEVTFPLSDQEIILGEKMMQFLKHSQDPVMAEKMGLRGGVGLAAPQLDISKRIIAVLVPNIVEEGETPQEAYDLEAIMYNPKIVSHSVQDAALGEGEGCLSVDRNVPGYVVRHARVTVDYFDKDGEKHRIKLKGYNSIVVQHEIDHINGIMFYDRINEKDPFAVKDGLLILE

Chains of the proteins cited; added tags and fusions are not shown. Lines headed by an entry give the natural chain unless they say otherwise; changes in a name come on top.
UniProt P44786: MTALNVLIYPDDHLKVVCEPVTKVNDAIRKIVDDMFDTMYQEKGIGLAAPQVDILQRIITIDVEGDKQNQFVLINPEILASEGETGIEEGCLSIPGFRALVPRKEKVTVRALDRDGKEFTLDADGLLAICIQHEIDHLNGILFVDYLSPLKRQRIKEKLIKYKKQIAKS

[3] = target: T2, Staphylococcus aureus PDF (SaPDF) (Staphylococcus aureus, UniProt P68826); assay: PDF IC50 assay (FDH-coupled), S. aureus PDF; conditions: read-out: IC50, inhibition of S. aureus PDF activity
T2 sequence (P68826 1-183): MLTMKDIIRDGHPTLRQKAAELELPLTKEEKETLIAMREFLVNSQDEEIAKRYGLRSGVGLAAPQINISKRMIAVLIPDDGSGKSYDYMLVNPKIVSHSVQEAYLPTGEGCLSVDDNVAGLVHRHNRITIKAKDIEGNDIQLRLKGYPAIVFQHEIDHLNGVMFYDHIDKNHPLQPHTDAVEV

| Structure (SMILES) | IC50 [1] [nM] | IC50 [2] [nM] | IC50 [3] [nM] |
| --- | --- | --- | --- |
| CCN(CC)C(=O)[C@@H]1CCCN1c1nc(Cl)nc(NNC(=O)[C@H](CC2CCCC2)CN(O)C=O)c1F [Example 260, 1-{2-Chloro-6-[2-((2R)-3-cyclopentyl-2-{[formyl(hydroxy)amino]methyl}propanoyl)hydrazino]-5-fluoro-4-pyrimidinyl}-N,N-dimethyl-L-prolinamide] | ≤ 100 |  |  |
| CC(C)Nc1nc(Cl)nc(NNC(=O)[C@H](CC2CCCC2)CN(O)C=O)c1F [Example 5, [(2R)-3-(2-{2-Chloro-5-fluoro-6-[(1-methylethyl)amino]-4-pyrimidinyl}hydrazino)-2-(cyclopentylmethyl)-3-oxopropyl]hydroxyformamide] |  | ≤ 100 | ≤ 100 |
| C[C@@H]1CN(c2nc(Cl)nc(NNC(=O)[C@H](CC3CCCC3)CN(O)C=O)c2F)[C@@H](C)CN1C (single isomer, unassigned) [Example 155] |  | ≤ 100 | ≤ 100 |
| CCc1nc(NNC(=O)[C@H](CC2CCCC2)CN(O)C=O)c(F)c(N(C)CCN(C)C)n1 [Example 38, N-{(2R)-2-(Cyclopentylmethyl)-3-[2-(6-{[2-(dimethylamino)ethyl](methyl)amino}-2-ethyl-5-fluoro-4-pyrimidinyl)hydrazino]-3-oxopropyl}-N-hydroxyformamide] |  | ≤ 100 | ≤ 100 |
| Cc1nc(NNC(=O)[C@H](CC2CCCC2)CN(O)C=O)c(F)c(N2CCC[C@H]2CO)n1 [Example 19, [(2R)-2-(Cyclopentylmethyl)-3-(2-{5-fluoro-6-[(2S)-2-(hydroxymethyl)-1-pyrrolidinyl]-2-methyl-4-pyrimidinyl}hydrazino)-3-oxopropyl]hydroxyformamide] |  | ≤ 100 | ≤ 100 |
| O=CN(O)C[C@@H](CC1CCCC1)C(=O)NNc1nc(CF)nc(NC2CCC2)c1F [Example 68, [(2R)-3-{2-[6-(Cyclobutylamino)-5-fluoro-2-(fluoromethyl)-4-pyrimidinyl]hydrazino}-2-(cyclopentylmethyl)-3-oxopropyl]hydroxyformamide] |  | ≤ 100 | ≤ 100 |
| O=CN(O)C[C@@H](CC1CCCC1)C(=O)NNc1nc(Cl)nc(N2CCN3CCCCCC3C2)c1F (stereo partly drawn) [Example 142, N-[(2R)-3-{2-[2-Chloro-5-fluoro-6-(octahydropyrazino[1,2-a]azepin-2(1H)-yl)-4-pyrimidinyl]hydrazino}-2-(cyclopentylmethyl)-3-oxopropyl]-N-hydroxyformamide] |  | ≤ 100 | ≤ 100 |
| O=CN(O)C[C@@H](CC1CCCC1)C(=O)NNc1nc(Cl)nc(N2CC(O)C3(CC3)C2)c1F (mixture of isomers) [Example 130, [(2R)-3-{2-[2-Chloro-5-fluoro-6-(7-hydroxy-5-azaspiro[2.4]hept-5-yl)-4-pyrimidinyl]hydrazino}-2-(cyclopentylmethyl)-3-oxopropyl]hydroxyformamide] |  | ≤ 100 | ≤ 100 |
| CN(C)C1CN(c2nc(Cl)nc(NNC(=O)[C@H](CC3CCCC3)CN(O)C=O)c2F)CC12CC2 (mixture of isomers) [Example 136, [(2R)-3-(2-{2-Chloro-6-[7-(dimethylamino)-5-azaspiro[2.4]hept-5-yl]-5-fluoro-4-pyrimidinyl}hydrazino)-2-(cyclopentylmethyl)-3-oxopropyl]hydroxyformamide] |  | ≤ 100 | ≤ 100 |
| C[C@@H]1CN(c2nc(Cl)nc(NNC(=O)[C@H](CC3CCCC3)CN(O)C=O)c2F)[C@H](C)CN1C [Example 214, N-[(2R)-3-(2-{2-Chloro-5-fluoro-6-[(2R,5R)-2,4,5-trimethyl-1-piperazinyl]-4-pyrimidinyl}hydrazino)-2-(cyclopentylmethyl)-3-oxopropyl]-N-hydroxyformamide] |  | ≤ 100 | ≤ 100 |
| Cc1nc(NNC(=O)[C@H](CC2CCCC2)CN(O)C=O)c(F)c(N(C)CCc2ccncc2)n1 [Example 190, N-{(2R)-2-(Cyclopentylmethyl)-3-[2-(5-fluoro-2-methyl-6-{methyl[2-(4-pyridinyl)ethyl]amino}-4-pyrimidinyl)hydrazino]-3-oxopropyl}-N-hydroxyformamide] |  | ≤ 100 | ≤ 100 |
| O=CN(O)C[C@@H](CC1CCCC1)C(=O)NNc1nc(Cl)nc(NCc2ccsc2)c1F [Example 204, [(2R)-3-(2-{2-Chloro-5-fluoro-6-[(3-thienylmethyl)amino]-4-pyrimidinyl}hydrazino)-2-(cyclopentylmethyl)-3-oxopropyl]hydroxyformamide] |  | ≤ 100 | ≤ 100 |
| O=CN(O)C[C@@H](CC1CCCC1)C(=O)NNc1nc(Cl)nc(NCCc2ccsc2)c1F [Example 220, [(2R)-3-[2-(2-Chloro-5-fluoro-6-{[2-(3-thienyl)ethyl]amino}-4-pyrimidinyl)hydrazino]-2-(cyclopentylmethyl)-3-oxopropyl]hydroxyformamide] |  | ≤ 100 | ≤ 100 |
| CN1CCN(c2nc(Cl)nc(NNC(=O)[C@H](CC3CCCC3)CN(O)C=O)c2F)[C@@H]2CCCC[C@@H]21 [Example 221, [(2R)-3-{2-[2-Chloro-5-fluoro-6-(4-methyloctahydro-1(2H)-quinoxalinyl)-4-pyrimidinyl]hydrazino}-2-(cyclopentylmethyl)-3-oxopropyl]hydroxyformamide] |  | ≤ 100 | ≤ 100 |

Source: patent US7893056B2, “Peptide deformylase inhibitors” (GlaxoSmithKline LLC, priority 2007, dated 2011)
